Measurements as given in publication PMC10774338.
Changes are numbered by the printed parent chain. No constants are given. Whether binding was seen depends on the method and setting. In cells and extracts the contact can be indirect. Some entries that bind do so weakly or less than the wild type. Tags and fused reporters may be left off the sequences shown.

Protein sequences, listed by entry. Tags and fused reporters are not part of them.
UniProt P62491: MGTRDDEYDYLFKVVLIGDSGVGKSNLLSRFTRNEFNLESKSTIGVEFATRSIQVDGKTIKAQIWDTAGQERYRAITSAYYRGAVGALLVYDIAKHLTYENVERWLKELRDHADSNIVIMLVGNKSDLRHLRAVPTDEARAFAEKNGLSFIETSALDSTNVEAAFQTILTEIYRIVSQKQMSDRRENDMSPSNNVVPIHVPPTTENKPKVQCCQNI

Experiments:
[1] = biological target: T1, Myc-tagged WDR44 L668S (human) (UniProt Q5JSH3); test: co-IP; GFP-RAB11A and Myc-WDR44 wild-type or variant coexpressed in 293T for 48 h; Myc-tagged proteins immunoprecipitated from lysate (150 mM NaCl, 20 mM Tris HCl pH 8.0, 10% glycerol, 1% Triton X-100; Protein G Sepharose), blots probed for GFP and Myc; also done after 3 h and 24 h serum starvation (wild-type, G782C, S764F)
T1 sequence: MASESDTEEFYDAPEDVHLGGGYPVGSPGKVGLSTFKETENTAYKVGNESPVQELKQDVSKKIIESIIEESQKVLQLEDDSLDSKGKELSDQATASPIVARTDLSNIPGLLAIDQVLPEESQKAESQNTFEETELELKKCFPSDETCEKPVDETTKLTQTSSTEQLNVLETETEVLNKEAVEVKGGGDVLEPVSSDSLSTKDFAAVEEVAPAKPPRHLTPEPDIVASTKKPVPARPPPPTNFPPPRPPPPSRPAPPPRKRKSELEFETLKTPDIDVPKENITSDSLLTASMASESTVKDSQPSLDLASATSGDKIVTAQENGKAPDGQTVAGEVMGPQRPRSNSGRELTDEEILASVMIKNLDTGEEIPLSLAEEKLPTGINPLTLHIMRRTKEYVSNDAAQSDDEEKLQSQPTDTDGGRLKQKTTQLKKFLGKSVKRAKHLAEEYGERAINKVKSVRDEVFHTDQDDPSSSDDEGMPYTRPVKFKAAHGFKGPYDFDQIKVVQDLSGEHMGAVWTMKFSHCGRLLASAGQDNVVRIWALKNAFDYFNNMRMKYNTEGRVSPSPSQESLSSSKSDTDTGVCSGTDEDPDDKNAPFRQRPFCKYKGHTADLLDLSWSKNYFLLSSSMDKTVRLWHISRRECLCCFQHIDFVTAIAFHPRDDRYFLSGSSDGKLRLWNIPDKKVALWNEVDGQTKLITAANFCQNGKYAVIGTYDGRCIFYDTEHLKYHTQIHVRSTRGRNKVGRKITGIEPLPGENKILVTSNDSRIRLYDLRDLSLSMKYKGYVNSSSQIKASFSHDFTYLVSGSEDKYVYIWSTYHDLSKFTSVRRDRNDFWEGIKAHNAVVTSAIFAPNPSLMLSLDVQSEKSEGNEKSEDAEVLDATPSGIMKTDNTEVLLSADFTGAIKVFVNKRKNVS

[2] = biological target: T2, Myc-tagged WDR44 G782C (human) (UniProt Q5JSH3); test: as above
T2 sequence: T1 sequence with S668L, G782C

- binding [1]: binds
- binding [2]: binds
Substance: GFP-tagged RAB11A (from UniProt P62491 1-216)
